From paper PMC7819943, “Rice protein-binding microarrays: a tool to detect cis-acting elements near promoter regions in rice” come the findings set out here.

Chains of the proteins cited; added tags and fusions are not shown.
UniProt Q0JBA9, entry or part of it: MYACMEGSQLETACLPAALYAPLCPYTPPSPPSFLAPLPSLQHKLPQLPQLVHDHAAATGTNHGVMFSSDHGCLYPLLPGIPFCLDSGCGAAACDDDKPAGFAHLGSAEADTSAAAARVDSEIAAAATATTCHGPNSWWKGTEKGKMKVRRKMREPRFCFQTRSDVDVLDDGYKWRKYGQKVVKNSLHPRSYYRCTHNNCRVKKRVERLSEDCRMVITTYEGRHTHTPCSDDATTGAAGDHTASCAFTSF

Some of the results follow.

The experiment has as its target OsWRKY34 (Oryza sativa, UniProt Q0JBA9 1-250). The experiment can be described thus: protein-binding microarray (RPBM); PBS, 2% BSA, 51.3 ng/ul salmon testes DNA, 50 uM zinc acetate, 200 nM TF, 25 C, 1 h; high values mean tight binding. The following applies: protein: recombinant; tags: N-terminal polyhistidine and DsRed monomer fusion (pET32a); label: CyDye5-dUTP incorporated in the synthesized complementary strand; 3' TTTTT single-stranded linker to array surface; dsDNA, one strand shown. In outline: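 For the binding signal, per-feature fluorescence intensity was read in arbitrary units on an Axon 4000B scanner. Before scanning, a 2% BSA-blocked custom Agilent array made double-stranded with Cy5-dUTP was washed after 1 h at 25 °C with 200 nM protein and 50 µM zinc acetate. The proteins were Ni–NTA-purified transcription factors with N-terminal polyhistidine and DsRed fusions, expressed in E. coli BL21-CodonPlus.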
As for “TTCTCTTGATTTGCACCAGCATTTTCTTAGGGTCATTTATCGGAGTCACCTAGTGCAG”, the binding signal is 9570 fluorescence intensity (a.u.).

As for “CTGTAAAGTCAAAGTGGTCAAAGGGGAGGGGAGATGTGGGCGGAGTCACCTAGTGCAG”, the binding signal was 14600 fluorescence intensity (a.u.). Then “TACATTGGTATCTATAGCTCTCTCATGCATTGCCTCGTTTCGGAGTCACCTAGTGCAG”, with 8230 fluorescence intensity (a.u.); and “TCACCTCGCCGCCGCCGCCATCGCCTTCTCAATCCCCAATCGGAGTCACCTAGTGCAG”, with 9630 fluorescence intensity (a.u.).

Take “AACATTTTTTACATTGTCACTGTGGTTTTCACTAACATGACGGAGTCACCTAGTGCAG”: the binding signal was 8320 fluorescence intensity (a.u.). Then “ACTCCGCCATGCCGCGCCGGTCTCCTAGGTTTTCCACTGACGGAGTCACCTAGTGCAG”, with 9270 fluorescence intensity (a.u.); and “GTTGGGTTGAGAATTTTGATGCGTGTGTGAGGTTTGATCTCGGAGTCACCTAGTGCAG”, with 13500 fluorescence intensity (a.u.). Regarding “CTTGGTCTTCATCTGACGTGGCGCTTACGTGGCAATTTGACGGAGTCACCTAGTGCAG”, the binding signal is 8800 fluorescence intensity (a.u.). Regarding “CTGATCGATCTCCTGATATTTCTTAGGTATATTGCTTGGCCGGAGTCACCTAGTGCAG”, the binding signal is 8070 fluorescence intensity (a.u.). In the case of “TTGCTGGATTTCATACTCCCACACCCTAATTTGTTGATTTCGGAGTCACCTAGTGCAG”, the binding signal was 10100 fluorescence intensity (a.u.). As to “ATATTTGATGTGATGTTTTTGGCCAAAATTTTTTTAGATCCGGAGTCACCTAGTGCAG”, the binding signal is 8500 fluorescence intensity (a.u.). Take “CGGTCTTGCGACACCACCGATTGTTCGGCTTGCACTGACACGGAGTCACCTAGTGCAG”: the binding signal is 8470 fluorescence intensity (a.u.). The same measure for “CCACACATCACAATTCACACCTTACTGCGGCCGTCGTTTACGGAGTCACCTAGTGCAG”: 9310 fluorescence intensity (a.u.); for “CCGCTGCCCGTCCCCGCAACCCAACGCCTGATTCGCTTCTCGGAGTCACCTAGTGCAG”: 9810 fluorescence intensity (a.u.); for “AGGGTGAGAGAGAGTGAGTTTGTTTATTTCGTTTTCCGCGCGGAGTCACCTAGTGCAG”: 10100 fluorescence intensity (a.u.). “GTCATGGTCACCAGTTCCAGTTTTTCCGGTTCAACAGCCGCGGAGTCACCTAGTGCAG”: the binding signal was 8650 fluorescence intensity (a.u.).

As to “GGTTGGGACTTGGTAAGGTTGTGGTGGTGTCATATGTCTCCGGAGTCACCTAGTGCAG”, the binding signal is 13000 fluorescence intensity (a.u.).

As for “TTACGATGACTCTTTACCTTGATTTTCATGAGTCTTTCTTCGGAGTCACCTAGTGCAG”, the binding signal was 10700 fluorescence intensity (a.u.). As to “ATATGTTGCCACGCTGGACCGCCACGTAAGTCAGTCAATCCGGAGTCACCTAGTGCAG”, the binding signal is 9020 fluorescence intensity (a.u.). As to “TGAATTTCGGTCTGTTTATTTGACCTGTTCTTGTACCTGACGGAGTCACCTAGTGCAG”, the binding signal was 8400 fluorescence intensity (a.u.). As for “TAGGTGGTCCCTTGCGGTTTTAGGGGTGTGAATTAAACTCCGGAGTCACCTAGTGCAG”, the binding signal is 9820 fluorescence intensity (a.u.). For the sequence “TCTCGAGGTTGTTACATTGTACTTGTCGCTAGCTCGTCATCGGAGTCACCTAGTGCAG”, the binding signal is 8400 fluorescence intensity (a.u.).

Take “CGCCGTTCCGGCCTCCTCTCTTACTTCTACTGCCGACCCCCGGAGTCACCTAGTGCAG”: the binding signal is 8090 fluorescence intensity (a.u.).

Take “CGGGTTCTTCATGTGCTGACTTCATTCCATAATTCATGTTCGGAGTCACCTAGTGCAG”: the binding signal is 13600 fluorescence intensity (a.u.).

Turning to “CACCTCGCCTAGGGTTTCGTCTCGGCTCGCGCGCCGCGGCCGGAGTCACCTAGTGCAG”, the binding signal is 8310 fluorescence intensity (a.u.).

In the case of “TCCAATCTGTGCTGCCTTTATATTAGTTCCACCAAGAAGACGGAGTCACCTAGTGCAG”, the binding signal is 9380 fluorescence intensity (a.u.). Consider “AATCCGCCACTTGCATGTGGGCCCCGTCATCTGACCCTTCCGGAGTCACCTAGTGCAG”, for which the binding signal is 8260 fluorescence intensity (a.u.).

For the sequence “TTCTATTTACCCCTGTTCAAAACCTACTGTAGAAACAAATCGGAGTCACCTAGTGCAG”, the binding signal is 8600 fluorescence intensity (a.u.). With “GCCCCTGGAAGATGAGCGGCTGCTGGTCTGGCGGAAGCCCCGGAGTCACCTAGTGCAG”, the binding signal is 9170 fluorescence intensity (a.u.).

Take “CTGCTTGTATTTTCAGTACACTGTTTTTTCGTCAGAAGCACGGAGTCACCTAGTGCAG”: the binding signal is 8230 fluorescence intensity (a.u.). On to “TCTCTCTCTTCAGTGCCATCACCATCTCTCTCTCTCTCTCCGGAGTCACCTAGTGCAG”, for which the binding signal is 8210 fluorescence intensity (a.u.). Take “AACTCGACTTGACCATCTGGCCCCACCTGTCAGCCTCTCACGGAGTCACCTAGTGCAG”: the binding signal was 8140 fluorescence intensity (a.u.). Turning to “GTGATGGAGATGTAGCTAGTCATGGGCTTCTTCGCCACCGCGGAGTCACCTAGTGCAG”, the binding signal was 8080 fluorescence intensity (a.u.). On to “CTGTATTTTTTCTGTGTTTTGTAATCCTCTGTTTTACACTCGGAGTCACCTAGTGCAG”, for which the binding signal was 11300 fluorescence intensity (a.u.). With “TTTCTACACACAAACTTCCAACTTTTCCGTCACATCGTTTCGGAGTCACCTAGTGCAG”, the binding signal is 10100 fluorescence intensity (a.u.). Then “TGGGTCGTGGCGTGGGTCCATATTGCGCGTTAGATTCTGGCGGAGTCACCTAGTGCAG”, with 8280 fluorescence intensity (a.u.); and “CCACACGCAGCCCGAGCCGCCGCCGCTTTTTCCGCCTCTTCGGAGTCACCTAGTGCAG”, with 10600 fluorescence intensity (a.u.). In the case of “TCCAACACACTAGTCTGGCAACCGGCTCTCTAATCCTTAACGGAGTCACCTAGTGCAG”, the binding signal was 8190 fluorescence intensity (a.u.). “CTCACCCATTCTAATTATTTAATATTAGGTCATTCTCCAACGGAGTCACCTAGTGCAG”: the binding signal was 8390 fluorescence intensity (a.u.). Then “CCTTACTTCTAAGCAAAACCTAATTTCCTTTGCTTGTTGCCGGAGTCACCTAGTGCAG”, with 8110 fluorescence intensity (a.u.); and “CTCGCGACCACTTCACTGGACTACACTACCACCTCTCTCTCGGAGTCACCTAGTGCAG”, with 10700 fluorescence intensity (a.u.); and “ATCGAGTCGTGGGTGTGCATGGTGTGCGTGGCGTCAGTTCCGGAGTCACCTAGTGCAG”, with 8230 fluorescence intensity (a.u.).
